Experimental data published in article PMC9270398.
These are yes or no findings as the source states them, for the method shown. Binding seen in cells or lysates may run through a third protein. Binding calls can cover weak binding; strength is not graded here.

Molecular target: T1, TRIM24, endogenous in mouse liver / primary hepatocytes (mouse (endogenous in primary hepatocytes)) (UniProt Q64127)
T1 sequence: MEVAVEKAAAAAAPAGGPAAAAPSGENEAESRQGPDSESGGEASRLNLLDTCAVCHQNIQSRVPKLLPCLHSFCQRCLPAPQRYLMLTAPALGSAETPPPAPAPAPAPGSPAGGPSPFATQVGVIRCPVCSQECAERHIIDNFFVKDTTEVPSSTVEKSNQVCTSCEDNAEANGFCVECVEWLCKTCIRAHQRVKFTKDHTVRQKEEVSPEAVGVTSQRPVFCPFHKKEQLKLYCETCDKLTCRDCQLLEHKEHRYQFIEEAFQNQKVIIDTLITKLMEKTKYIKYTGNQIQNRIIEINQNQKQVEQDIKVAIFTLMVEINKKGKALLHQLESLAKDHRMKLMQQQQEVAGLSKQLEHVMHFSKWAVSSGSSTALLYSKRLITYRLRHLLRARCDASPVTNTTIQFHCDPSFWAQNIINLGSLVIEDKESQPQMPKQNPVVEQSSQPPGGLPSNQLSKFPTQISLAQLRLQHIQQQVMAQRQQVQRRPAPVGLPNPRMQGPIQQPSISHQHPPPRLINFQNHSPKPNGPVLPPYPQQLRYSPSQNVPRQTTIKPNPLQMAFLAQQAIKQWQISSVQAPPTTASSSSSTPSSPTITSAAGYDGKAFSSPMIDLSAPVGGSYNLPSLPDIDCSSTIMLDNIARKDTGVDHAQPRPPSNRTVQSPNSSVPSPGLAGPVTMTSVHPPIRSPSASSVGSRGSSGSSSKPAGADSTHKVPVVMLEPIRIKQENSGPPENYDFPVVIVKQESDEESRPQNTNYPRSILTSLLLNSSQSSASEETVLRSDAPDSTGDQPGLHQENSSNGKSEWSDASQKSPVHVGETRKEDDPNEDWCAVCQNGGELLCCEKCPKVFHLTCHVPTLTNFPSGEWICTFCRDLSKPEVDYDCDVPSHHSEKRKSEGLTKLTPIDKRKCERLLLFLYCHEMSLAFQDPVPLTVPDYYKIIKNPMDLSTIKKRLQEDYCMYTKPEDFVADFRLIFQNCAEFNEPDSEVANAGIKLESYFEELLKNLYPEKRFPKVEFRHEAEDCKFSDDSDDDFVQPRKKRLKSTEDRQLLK
Experiment: co-IP; endogenous TRIM24 immunoprecipitated with the TRIM24 antibody from lysates of mouse primary hepatocytes (text: liver lysates); endogenous P-body components detected by immunoblotting

In the case of “DCP1, endogenous in mouse liver / primary hepatocytes”, the binding is reported as “binds”.
